Literature values, collected in patent US20050228336A1, “Electrically assisted lidocaine and epinephrine delivery device having extended shelf-stability” (priority 2004, published 2005).
Some results were stated once for a whole list of compounds, not compound by compound. For at least one compound, name, drawing or mass did not settle the structure.

Conditions: without epinephrine

Question: Which Duration of effects does the source give for `CCCN(CC)C(CC)C(=O)Nc1c(C)cccc1C` (stereo not drawn) [etidocaine] here?
Answer: 3 to 4 h

Question: For `CCCCN1CCCCC1C(=O)Nc1c(C)cccc1C` (stereo not drawn) [bupivacaine], which Duration of effects is on record?
Answer: 3 to 4 h

Question: With `CCN(CC)CCOC(=O)c1ccc(N)cc1` [procaine] as the compound, how does the Duration of effects read?
Answer: < 2 h

Question: With `CCN(CC)CCOC(=O)c1ccc(N)cc1Cl` [chloroprocaine] as the compound, how does the Duration of effects read?
Answer: < 2 h

Question: Which Duration of effects does the source give for `CCCNC(C)C(=O)Nc1ccccc1C` (stereo not drawn) [prilocalne] here?
Answer: < 2 h

Question: Which Duration of effects does the source give for `Cc1cccc(C)c1NC(=O)C1CCCCN1C` (stereo not drawn) [mepivacaine] here?
Answer: 3 to 4 h
